Data taken from paper PMC6464244, “The fungal ribonuclease-like effector protein CSEP0064/BEC1054 represses plant immunity and interferes with degradation of host ribosomal RNA”.
No constants are given. Whether binding was seen depends on the method and setting. In cells and extracts the contact can be indirect. For some assays here: Binding calls can cover weak binding; strength is not graded here.

Amino acid sequences for entries named in this document (tags omitted). A change or cut given only in a name is not applied to a line headed by its entry.
UniProt A0A0U2LC24: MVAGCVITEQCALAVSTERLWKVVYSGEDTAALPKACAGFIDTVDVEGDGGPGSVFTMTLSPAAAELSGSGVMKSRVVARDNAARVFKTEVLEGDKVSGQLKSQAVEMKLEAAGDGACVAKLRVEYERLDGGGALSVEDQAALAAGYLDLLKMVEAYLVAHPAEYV

Experiments:
[1] = target: T1, CSEP0064/BEC1054 (Blumeria graminis f.sp. hordei) (UniProt N1JJ94); test: split reporter
T1 sequence: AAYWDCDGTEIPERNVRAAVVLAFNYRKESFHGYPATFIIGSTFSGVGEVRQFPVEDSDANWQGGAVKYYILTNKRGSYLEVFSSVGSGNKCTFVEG

[2] = target: T1, CSEP0064/BEC1054 (Blumeria graminis f.sp. hordei); test: split reporter; BiFC in single barley leaf epidermal cells after particle bombardment; CSEP baits N-terminally tagged with the C-terminal half of mYFP, barley preys C-terminally tagged with the N-terminal half of mYFP, DsRED as transformation marker; imaged three days after bombardment; 9-45 cells per combination scored in four categories of YFP fluorescence

Substance | binding [1] | binding [2]
Glutathione-S-Transferase (GST) (barley (Hordeum vulgare)) (enzyme) | no binding | 
Pathogenesis-Related protein 10 (PR10) (from UniProt A0A0U2LC24) |  | binds
eukaryotic Elongation Factor 1 Alpha (eEF1α) isoform 1 (barley (Hordeum vulgare)) | no binding | 
eukaryotic Elongation Factor 1 Alpha (eEF1α) isoform 3 (from UniProt A0A0U2K644) | no binding | 
eukaryotic Elongation Factor 1 Gamma (eEF1γ) (barley (Hordeum vulgare)) | no binding | 
malate dehydrogenase (MDH) (barley (Hordeum vulgare)) (enzyme) | no binding | 
nucleoside diphosphate kinase (NDPK) (barley (Hordeum vulgare)) (enzyme) | no binding | 
ribosomal 40S subunit protein 16 (40S 16) (barley (Hordeum vulgare)) | no binding | 
